# Results: PubChem BioAssay AID1347075 (National Center for Advancing Translational Sciences (NCATS), 2019)
# Out of some 400,000 compounds screened, about 5,500 (1.4%) were called active. The shares of active, inactive and inconclusive entries below differ from those in the screen. The call rests on the fitted dose curve; in most records, active means well fitted cell-killing curve with a large enough effect; inconclusive means small, poorly fitted or top-dose-only effect, or effect the other way; inactive means flat fitted curve, though single readings scatter. Potencies beside an inconclusive call are fits to weak or partial responses and may not hold up.
# Experiment: qHTS assay for MDR1-selective chemotherapeutics: Primary screen using the parental adenocarcinoma cell KB-3-1; further: nearly all actives have a fitted effect of over 60% in size
# Settings: KB-3-1 viability, CellTiter-Glo ATP luminescence, 72 h; activity change, negative = cytotoxic: at 46.1 µM (top of the series)
# How it was run: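 Screening of KB-3-1 cells (DMEM, 10% FBS, phenol-red free) ran from lowest to highest compound concentration; after 72 h at 37 °C viability was read luminescently and curves fitted.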
# On the % scale 0 is the no-effect control and ±100 the full control effect; potency means the concentration at half of the fitted maximal effect.
Compound,Potency,"activity change, negative = cytotoxic"
O=C(C(=O)N1CCN(c2cccc(Cl)c2)CC1)N1CCCCC1,inactive,–
CC(C)Nc1nc(NCCOc2ccccc2Cl)c2sc(-c3ccccc3)cc2n1,"inconclusive: 29.1 µM [cytotoxic, single point]",–
COc1cc(NC2CCCCC2O)c2nc(-c3ccc(Cl)cc3)ccc2c1 (stereo not drawn),"inconclusive: 29.1 µM [cytotoxic, single point]",–
CC(=O)N1CCC(C(=O)OCc2ccccc2F)(c2ccccc2)CC1,"inconclusive: 32.6 µM [cytotoxic, single point]",–
C#CCn1c(O)c(N=NC(=O)CNC(=O)c2cccnc2)c2ccccc21,"inconclusive: 16.4 µM [rising, partial curve, poor fit]",–
C(=Cc1cnnc2ccccc12)c1ccccc1,inactive,–
Cc1ccc(C(=O)COC(=O)[C@@H](NC(=O)c2ccco2)C(C)C)s1,–,inconclusive: 2.81%
O=C(Nc1ccnc(=O)[nH]1)c1sc2ccccc2c1Cl,inactive,–
COc1ccc(NC(=O)c2csc(Cc3ccc(Cl)cc3)n2)cc1,inactive,–
CCC(=O)Nc1nonc1-c1nc2ccccc2n1Cc1cccc2ccccc12,active: 0.92 µM,–
N#C/C(=C/c1ccc(Sc2nc3ccccc3[nH]2)o1)c1cccc(Br)c1,"inconclusive: 29.1 µM [cytotoxic, single point]",–
COc1ccc(C(=O)Nc2cccc(-c3ccc4nncn4n3)c2)cc1,inactive,–
Cc1cc(C)nc(/N=C(\N)Nc2cccc(OCc3ccccc3)c2)n1,"inconclusive: 29.1 µM [cytotoxic, single point]",–
O=C1c2cccc(OCC(=O)N3CCCc4ccccc43)c2CCN1Cc1ccc(Br)cc1,active: 18.4 µM,–
C=CS(=O)(=O)c1ccc(Oc2ccc(S(=O)(=O)C=C)cc2)cc1,"inconclusive: 3.26 µM [cytotoxic, partial curve, poor fit]",–
COc1ccc(C(=O)N/N=c2\oc3ccccc3cc2C(N)=O)cc1,"inconclusive: 10.3 µM [rising, partial curve, poor fit]",–
CC1CCCC(NC(=O)c2ccc3c(SCC(=O)O)c4c(nc3c2)CCC4)C1C (stereo not drawn),"inconclusive: 0.0146 µM [rising, full curve]",–
Cc1nc2ccccn2c1C(=O)N/N=C/c1ccc2c(c1)OCO2,"inconclusive: 29.1 µM [cytotoxic, single point]",–
CCc1c(C)sc(NC(=O)CSc2nc3c(c(C(F)(F)F)n2)CCc2ccccc2-3)c1C#N,"inconclusive: 23.1 µM [cytotoxic, partial curve, poor fit]",–
CCOc1cc(C(=O)OCc2ccc([N+](=O)[O-])cc2)ccc1OCC(=O)N1CCOCC1,"inconclusive: 29.1 µM [rising, single point]",–
C[C@]12CCC3C(CC[C@H]4CCCC[C@]34C)C1CC[C@@]2(O)CNCCO (stereo partly drawn),inactive,–
O=C(Cc1c(Cl)cccc1Cl)OCC(=O)c1ccc[nH]1,inactive,–
CC(C)N(C)C1CCN(S(=O)(=O)c2ccc(-c3ccc(=O)[nH]n3)s2)CC1,inactive,–
Cc1ccc(N[S+](=O)([O-])c2cc3c(cc2CCc2ccccc2)NC(=O)CO3)cc1C,inactive,–
CCOC(=O)[C@@H]1[C@H]2COc3ccccc3[C@@H]2N2C(=O)N(c3ccc(F)cc3)C(=O)[C@]12C,"inconclusive: 18.4 µM [rising, partial curve, poor fit]",–

Compound,Potency,"activity change, negative = cytotoxic"
CCCOc1ccc(/C=N/Nc2ccccc2[N+](=O)[O-])c(O)c1,"inconclusive: 23.1 µM [cytotoxic, partial curve]",–
CCCCCCCN1CCN=C1N(C)C,inactive,–
CCCCN1C(=O)c2[nH]nc(-c3ccccc3O)c2C1c1ccc(C(C)(C)C)cc1 (stereo not drawn),"inconclusive: 18.4 µM [cytotoxic, single point]",–
O/N=C(/C[n+]1csc2ccccc21)c1ccccc1,"inconclusive: 8.2 µM [rising, partial curve, poor fit]",–
CCC1Oc2ccc(C)cc2N(CC(=O)NCc2ccc(OC)cc2)C1=O (stereo not drawn),inactive,–
COc1ccccc1CCc1nnc(CCC(=O)NC(C)Cn2nc(C)cc2C)o1 (stereo not drawn),"inconclusive: 0.0058 µM [cytotoxic, full curve]",–
CCN(CC)C(=O)CSc1nc2c(sc(=S)n2-c2ccccc2)c(=O)n1Cc1ccco1,"inconclusive: 20.6 µM [cytotoxic, partial curve]",–
Cc1ccc(-c2nc3cc(Cl)ccc3o2)cc1NC(=O)c1cc([N+](=O)[O-])ccc1N1CCOCC1,inactive,–
CCC(=O)N1CCc2cc(Br)cc(S(=O)(=O)N3CCC(C(=O)Nc4ccccc4CC)CC3)c21,inactive,–
COc1ccc(C2=CCC3CCCCN3C2)cc1OC (stereo not drawn),inactive,–
Cc1ccc(S(=O)(=O)N2CCN(C(=O)C3CCN(C(=O)c4ccccc4C)CC3)CC2)cc1C,inactive,–
CC(C)Oc1ccc(CNC(=O)C2CCN(c3nc4ccccc4nc3C(F)(F)F)CC2)cc1,"inconclusive: 11.6 µM [cytotoxic, partial curve, poor fit]",–
CCn1cc(Cl)c(C(=O)N2N=C(c3ccc4ccccc4c3)CC2c2ccccc2O)n1 (stereo not drawn),active: 20.6 µM,–
COc1cc(/C=C/C(=O)OC(C)C(=O)NC2CCCCC2C)cc(Cl)c1OC (stereo not drawn),inactive,–
CCCC1=C(C(=O)OCC)C(c2ccc(O)cc2)n2ncnc2N1 (stereo not drawn),"inconclusive: 11.6 µM [rising, partial curve, poor fit]",–
O=C1CN(C(=S)Nc2ccccc2Cl)CCN1,–,inconclusive: -68.6%
Cc1ccc(S(=O)(=O)CCC(=O)OC(C)C(=O)c2c(C)[nH]c3ccccc23)cc1 (stereo not drawn),"inconclusive: 10.3 µM [rising, partial curve]",–
CC(C)Cn1c(-c2ccccc2F)n[nH]c1=S,inactive,–
COc1cccc(NC(=O)CSc2nnc(-c3cccc(OC(C)C)c3)n2N)c1,inactive,–
CCC(C)NC(=S)NNC(=O)c1ccncc1 (stereo not drawn),inactive,–
Cc1ccc(S(=O)(=O)N(C)Cc2nc(-c3ccc(Br)cc3)no2)cc1,"inconclusive: 29.1 µM [cytotoxic, single point]",–
O=C(c1cc2c(s1)CCCC2)N1CCN(Cc2ccc3c(c2)OCO3)CC1,"inconclusive: 29.1 µM [cytotoxic, single point]",–
Cc1ccc(N=Nc2c(N)[nH]n3c(=O)cc(C)nc23)cc1,active: 18.4 µM,–
C=CCn1c(NCCc2ccccc2)nc2c1c(=O)n(C)c(=O)n2C,"inconclusive: 16.4 µM [cytotoxic, single point]",–
CCOc1cc(C(=O)N(C)CC(=O)Nc2cccc3ccccc23)ccc1OC,inactive,–

# In a second layout: results already given
Compound	Potency	activity change, negative = cytotoxic
Cc1ccc(-c2nc3cc(Cl)ccc3o2)cc1NC(=O)c1cc([N+](=O)[O-])ccc1N1CCOCC1	inactive	–
CCC(=O)N1CCc2cc(Br)cc(S(=O)(=O)N3CCC(C(=O)Nc4ccccc4CC)CC3)c21	inactive	–
COc1ccc(C2=CCC3CCCCN3C2)cc1OC (stereo not drawn)	inactive	–
Cc1ccc(S(=O)(=O)N2CCN(C(=O)C3CCN(C(=O)c4ccccc4C)CC3)CC2)cc1C	inactive	–
CC(C)Oc1ccc(CNC(=O)C2CCN(c3nc4ccccc4nc3C(F)(F)F)CC2)cc1	inconclusive: 11.6 µM [cytotoxic, partial curve, poor fit]	–

# (list continues)

Compound,Potency,"activity change, negative = cytotoxic"
CCCCN1CC(=O)N2[C@H]3c4ccc(OC)cc4OC[C@@H]3[C@H](C(=O)OCC)[C@]2(C)C1=O,"inconclusive: 0.184 µM [rising, full curve]",–
COc1ccc(OC)c(-n2c(-c3ccn[nH]3)n[nH]c2=S)c1,"inconclusive: 29.1 µM [rising, single point]",–
c1ccc2c(c1)CCN(c1nc3ccccc3n3cnnc13)C2,inactive,–
CCOC(=O)N1CCN(C(=O)CN2C(=O)NC(c3ccccc3)(c3ccccc3)C2=O)CC1,"inconclusive: 29.1 µM [cytotoxic, single point]",–
O=C1/C(=C/c2ccncc2)CCC/C1=C\c1ccncc1,active: 7.31 µM,–
COc1cc(CN2CC(=O)N(c3ccc(C)c(C)c3)C2=S)cc(OC)c1OC,"inconclusive: 13 µM [cytotoxic, partial curve]",–
CCc1ccc(/C=N/Nc2ncnc3nc[nH]c23)cc1,"inconclusive: 32.6 µM [cytotoxic, single point]",–
CCc1nnc(NC(=O)c2ccc3nc(CC)c(CC)nc3c2)s1,"inconclusive: 11.6 µM [rising, partial curve, poor fit]",–
COc1ccc([C@@H]2COc3c(ccc4c3C=CC(C)(C)O4)C2)c(OC)c1,inactive,–
CCOc1ccc(CNC(=O)c2cccc(NC(=O)N3CCSc4ncccc43)c2)cc1,inactive,–
Oc1ccc(Br)cc1-c1cc(-c2ccc(Cl)cc2)n[nH]1,active: 18.4 µM,–
COc1ccc(CNC(=O)c2ccc3nc(CCc4ccccc4)oc3c2)cc1OC,inactive,–
CCOC(=O)c1c(NC(=O)Cn2nc([N+](=O)[O-])c(Br)c2C)sc2c1CCC(C)C2 (stereo not drawn),"inconclusive: 16.4 µM [cytotoxic, partial curve]",–
CC(C)Cn1cc(NC(=O)Nc2cccc(C(F)(F)F)c2)c2ccccc2c1=O,"inconclusive: 25.9 µM [cytotoxic, partial curve, poor fit]",–
O=C(CNS(=O)(=O)c1ccccc1)N/N=C/c1ccccc1[N+](=O)[O-],inactive,–
COc1ccc(-c2noc(C3CCCN(S(=O)(=O)c4cccc(Cl)c4)C3)n2)cc1OC (stereo not drawn),"inconclusive: 29.1 µM [cytotoxic, single point]",–
C=CCOc1ccc(Br)cc1/C=C1/SC(=Nc2ccc(C(=O)O)cc2)NC1=O,"inconclusive: 8.2 µM [rising, partial curve, poor fit]",–
Cc1nn(-c2ccccc2)c(N)c1N=Nc1ccccc1,"inconclusive: 18.4 µM [cytotoxic, single point]",–
CCOc1ccccc1N1C(=O)CC(Sc2ccccc2N)C1=O (stereo not drawn),"inconclusive: 29.1 µM [cytotoxic, single point]",–
CCCCCCC1(C)NC(=S)N(c2ccccc2)N1 (stereo not drawn),"inconclusive: 10.3 µM [cytotoxic, partial curve, poor fit]",–
CCc1cc(C(=O)c2ccc(OC)cc2)c(NC(=O)CCC(=O)O)s1,inactive,–
COc1ccc(N(CC(=O)NC2CCS(=O)(=O)C2)S(=O)(=O)c2cc(C)ccc2C)cc1 (stereo not drawn),inactive,–
O=C(Nc1ccc(Oc2ccc(NC(=O)Nc3ccc([N+](=O)[O-])cc3)cc2)cc1)Nc1ccc([N+](=O)[O-])cc1,active: 18.4 µM,–
